Assay results as given in US20030092692A1, “Cytoprotective steroids (II)” (priority 2000, published 2003).
At least one structure is not confirmed: it was looked up by name or label, or the drawing left a doubt. Some of these results come from one statement about several compounds together.

Test system: Rat cortical neurons
Experiment: Glutamate induced neuronal cell death of primary cortical cultures (LDH release)
Assay type: cell-based, Wistar rat
Procedure: Rat cortical neurons were cultured by modification of the methods of Dichter (1973) Brain Res 149, p279-293 and Durkin et al (1996) J. Neurochem 66, p951-962. A female Wistar rat (Janvier, Le Genest-St-Isle, France: ref RJ WAF151) of 17 days gestation was killed by cervical disclocation, the foetuses removed on embryonoic day 17 and brains removed and placed in ice-cold calcium/magnesium free Hanks balanced salt solution (HBSS: Gibco Life Technologies, Cergy-Pontoise, France: ref 14170-088 batch 302790). Each cortex was dissected and meninges were carefully removed.
The cortical neurons were dissociated by trypsinization for 5 minutes at 37° C. (trypsin: 0.5 mg/ml: Difco, LPCR, Strasbourg: ref 0152-14 batch 128856JC) and the reaction stopped by addition of HBSS containing calcium and magnesium (HBSS+ Gibco ref 24020-091; batch 3010598) with 10% of fetal bovine serum FBS; Gibco; ref 1027-098; batch 40Q1681K and 1 mg/ml DNase I (Boehringer Mannheim, Meylan, France; ref 1284938; batch 14880300).
The suspension was triturated with a 10 ml pipette (stripette Costar, Dutscher, Brumath, France) and was added in a centrifuge tube (Tube 50 ml Corning, Dutscher) containing 20 ml HBSS^− with 3.5% of BSA (Sigma, L'Isle D'Abeau Chesnes, ref. A6003, batch 29H7606) and centrifuged at low speed (150×g) for 10 min (apparatus Sigma 2-15, Bioblock, Illkirch, France).
The cells were resuspended in Dulbecco's Modified Eagle Medium (DMEM; Gibco; ref. 41965-039; batch 3032129), containing 20% FBS. Viable cells were quantified and plated at 35,000/well in 96 well plates (Nunclon, Gibco) previously coated with poly-L-lysine (0.01 mg/ml, France; ref. P5899; batch 28H8504). Cells were allowed to adhere 2 h and maintained in a humidified incubator at 37° C. in 5% CO2-95% air atmosphere.
Culture medium was then changed to a medium consisting of DMEM, 10% heat-inactivated FBS, 10% heat-inactived horse serum (Gibco, ref. 16505-080; batch 3030347) and 1% L-Glutamine (Gibco, ref. 25030-024; batch 3031499).
Since the cultures were mixed populations containing both neurons and glial cells, to minimize glial growth, the cultures were treated for 2 days with 15 μg/ml of 5-fluoro-2′-deoxyuridine (Sigma; ref. F8791; batch 97H4048) and 35 μg/ml of uridine (Sigma, ref. U3003; batch 18H11965) on day 4 of culture.
Following exposure to mitotic inhibitors, one-half of the medium was removed and replaced with growth medium consisting of 89% DMEM, 10% horse serum and 1% L-glutamine.
Glutamate toxicity experiments were performed after 13 days in culture (Glutamic acid; Sigma, ref. G6904; batch 18H11381).
On day 12, twenty-four hours before glutamate exposure, cultures were washed with DMEM and placed in medium DMEM/Ham12 with supplements but without estradiol. […]

Structure (SMILES): C[C@]12CC[C@@H]3c4ccc(O)cc4C[C@@H](O)[C@H]3[C@@H]1CC[C@@H]2O [7α-hydroxy-estradiol, Estra-1,3,5(10)-triene 3,7α,17β-triol]
- less cell death in presence of glutamate (doses of 10 to 100 nM, glutamate 200 μM): up to 20%

Structure (SMILES): C[C@]12CC[C@@H]3c4ccc(O)cc4CC[C@H]3[C@@H]1CC[C@@H]2O [estradiol]
- effect on normal cell death (10 nM, without glutamate): protect significantly
- effect on normal cell death relative to control (100 nM, without glutamate): significantly increased cell death
- protection of cortical neurones from glutamate neurotoxicity (doses of 0, 50 and 100 nM, glutamate 200 μM): failing to protect
